Data published in article PMC6882185.
No constants are given. Whether binding was seen depends on the method and setting. Binding seen in cells or lysates may run through a third protein. Some binding calls cover weakened binding; strength is not graded here.

Amino acid sequences for entries named in this document (tags omitted). Residues count along the entry.
UniProt P46531, residues 19-2555: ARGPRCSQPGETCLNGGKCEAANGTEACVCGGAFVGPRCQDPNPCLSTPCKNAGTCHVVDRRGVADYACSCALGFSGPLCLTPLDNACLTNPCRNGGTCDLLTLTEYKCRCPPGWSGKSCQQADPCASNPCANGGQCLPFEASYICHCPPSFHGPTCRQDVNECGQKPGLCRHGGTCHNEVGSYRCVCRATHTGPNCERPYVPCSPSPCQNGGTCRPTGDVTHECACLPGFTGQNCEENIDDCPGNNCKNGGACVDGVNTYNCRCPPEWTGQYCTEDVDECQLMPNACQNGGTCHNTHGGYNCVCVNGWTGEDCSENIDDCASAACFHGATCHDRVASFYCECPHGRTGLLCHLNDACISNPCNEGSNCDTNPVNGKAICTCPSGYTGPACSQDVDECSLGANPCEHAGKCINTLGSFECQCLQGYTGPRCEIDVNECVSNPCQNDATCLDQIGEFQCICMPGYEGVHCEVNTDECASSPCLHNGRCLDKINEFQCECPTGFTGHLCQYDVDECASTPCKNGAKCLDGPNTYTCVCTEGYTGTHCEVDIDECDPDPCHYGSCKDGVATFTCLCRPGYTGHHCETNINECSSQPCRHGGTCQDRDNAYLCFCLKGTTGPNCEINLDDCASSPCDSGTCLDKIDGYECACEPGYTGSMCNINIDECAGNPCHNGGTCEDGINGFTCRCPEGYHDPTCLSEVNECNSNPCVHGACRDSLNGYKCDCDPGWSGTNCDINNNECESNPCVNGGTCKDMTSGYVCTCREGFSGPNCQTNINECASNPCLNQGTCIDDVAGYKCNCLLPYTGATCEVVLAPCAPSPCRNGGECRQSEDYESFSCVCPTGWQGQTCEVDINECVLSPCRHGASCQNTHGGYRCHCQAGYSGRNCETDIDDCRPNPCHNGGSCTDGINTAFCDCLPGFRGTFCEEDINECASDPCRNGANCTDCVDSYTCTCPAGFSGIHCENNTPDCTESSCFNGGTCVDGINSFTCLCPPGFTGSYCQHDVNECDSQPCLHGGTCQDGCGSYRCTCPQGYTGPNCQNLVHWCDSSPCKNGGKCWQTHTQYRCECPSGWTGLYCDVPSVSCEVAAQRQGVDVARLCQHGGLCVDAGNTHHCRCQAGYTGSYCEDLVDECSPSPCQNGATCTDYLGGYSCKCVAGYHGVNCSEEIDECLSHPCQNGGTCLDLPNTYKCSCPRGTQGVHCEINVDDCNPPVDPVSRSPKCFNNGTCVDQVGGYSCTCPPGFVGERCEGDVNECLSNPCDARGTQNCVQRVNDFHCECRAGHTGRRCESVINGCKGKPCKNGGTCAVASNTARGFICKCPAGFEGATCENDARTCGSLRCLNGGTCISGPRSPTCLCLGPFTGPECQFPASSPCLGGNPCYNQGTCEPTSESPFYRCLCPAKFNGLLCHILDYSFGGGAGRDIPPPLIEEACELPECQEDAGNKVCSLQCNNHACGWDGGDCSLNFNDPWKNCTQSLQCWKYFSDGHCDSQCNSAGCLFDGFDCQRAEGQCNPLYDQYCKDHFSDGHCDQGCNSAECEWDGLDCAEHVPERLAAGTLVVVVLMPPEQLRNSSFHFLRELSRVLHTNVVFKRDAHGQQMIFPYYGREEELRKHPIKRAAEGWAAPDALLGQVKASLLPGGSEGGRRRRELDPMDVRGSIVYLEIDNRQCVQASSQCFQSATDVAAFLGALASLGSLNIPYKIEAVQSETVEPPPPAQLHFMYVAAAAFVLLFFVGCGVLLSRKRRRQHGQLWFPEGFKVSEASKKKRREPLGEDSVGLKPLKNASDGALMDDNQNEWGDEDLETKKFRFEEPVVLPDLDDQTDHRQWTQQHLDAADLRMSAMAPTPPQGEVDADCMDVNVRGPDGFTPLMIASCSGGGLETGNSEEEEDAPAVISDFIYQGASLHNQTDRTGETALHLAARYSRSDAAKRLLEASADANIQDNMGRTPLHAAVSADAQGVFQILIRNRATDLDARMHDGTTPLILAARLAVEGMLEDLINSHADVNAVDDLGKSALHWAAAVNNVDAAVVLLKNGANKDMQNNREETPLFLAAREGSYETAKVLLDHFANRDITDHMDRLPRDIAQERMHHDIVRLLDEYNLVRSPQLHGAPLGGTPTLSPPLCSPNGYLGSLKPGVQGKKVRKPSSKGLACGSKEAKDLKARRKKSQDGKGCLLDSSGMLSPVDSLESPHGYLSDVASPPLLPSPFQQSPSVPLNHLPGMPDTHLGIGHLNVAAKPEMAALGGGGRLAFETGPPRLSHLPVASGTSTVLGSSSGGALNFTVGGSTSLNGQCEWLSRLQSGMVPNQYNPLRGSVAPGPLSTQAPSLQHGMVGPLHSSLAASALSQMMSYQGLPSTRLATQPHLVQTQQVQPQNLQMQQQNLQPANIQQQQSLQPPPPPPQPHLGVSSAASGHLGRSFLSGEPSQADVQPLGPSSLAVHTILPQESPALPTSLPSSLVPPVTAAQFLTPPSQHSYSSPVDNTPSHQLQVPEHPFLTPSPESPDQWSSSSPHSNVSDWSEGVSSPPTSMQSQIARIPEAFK

Molecular target: NOTCH1 receptor (human (endogenous in RBE and SSP-25)) (UniProt P46531)
Assay: co-IP; lysates of RBE and SSP-25 cells (Pierce lysis buffer, protease inhibitors) incubated with NOTCH1 antibody, MFAP5 antibody or control IgG, then Protein A/G Dynabeads; eluate analysed by Western blot

B1: Microfibrillar-associated protein 5 (protein, UniProt Q13361 22-173)
chain: IPLGVNSQRGDDVTQATPETFTEDPNLVNDPATDETVLAVLADIAPSTDDLASLSEKNTTAECWDEKFTCTRLYSVHRPVKQCIHQLCFTSLRRMYIVNKEICSRLVCKEHEAMKDELCRQMAGLPPRRLRRSNYFRLPPCENVDLQRPNGL
binding: binds
